From US20050118646A1
No constants are given. Whether binding was seen depends on the method and setting. Binding seen in cells or lysates may run through a third protein. Some binding calls cover weakened binding; strength is not graded here. Tags and fused reporters may be left off the sequences shown.

How the values were obtained:
Assay in all cases: pull-down on streptavidin beads from cell lysate, TEV release, Ni beads, MS/MS identification; listed D (direct, by literature)
[1] = biological target: T1, syntaxin 6 (human) (UniProt O43752)
T1 sequence (looked up): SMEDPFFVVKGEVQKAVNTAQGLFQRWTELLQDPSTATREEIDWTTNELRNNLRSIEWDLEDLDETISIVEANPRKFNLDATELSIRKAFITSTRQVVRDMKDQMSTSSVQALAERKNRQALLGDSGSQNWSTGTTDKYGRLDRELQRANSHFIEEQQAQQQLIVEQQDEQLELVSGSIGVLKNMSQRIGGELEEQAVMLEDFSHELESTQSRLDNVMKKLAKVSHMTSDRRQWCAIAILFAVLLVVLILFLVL

[2] = biological target: T2, cis-Golgi SNARE p28 (human) (UniProt O95249)
T2 sequence (looked up): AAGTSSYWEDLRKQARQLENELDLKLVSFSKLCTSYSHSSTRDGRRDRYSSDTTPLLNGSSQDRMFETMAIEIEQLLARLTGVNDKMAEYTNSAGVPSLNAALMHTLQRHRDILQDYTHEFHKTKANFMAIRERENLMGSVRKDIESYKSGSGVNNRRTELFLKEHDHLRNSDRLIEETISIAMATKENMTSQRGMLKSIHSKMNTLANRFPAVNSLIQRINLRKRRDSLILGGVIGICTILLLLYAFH

[3] = biological target: T3, syntaxin 5 - human (human) (UniProt Q13190)
T3 sequence (looked up): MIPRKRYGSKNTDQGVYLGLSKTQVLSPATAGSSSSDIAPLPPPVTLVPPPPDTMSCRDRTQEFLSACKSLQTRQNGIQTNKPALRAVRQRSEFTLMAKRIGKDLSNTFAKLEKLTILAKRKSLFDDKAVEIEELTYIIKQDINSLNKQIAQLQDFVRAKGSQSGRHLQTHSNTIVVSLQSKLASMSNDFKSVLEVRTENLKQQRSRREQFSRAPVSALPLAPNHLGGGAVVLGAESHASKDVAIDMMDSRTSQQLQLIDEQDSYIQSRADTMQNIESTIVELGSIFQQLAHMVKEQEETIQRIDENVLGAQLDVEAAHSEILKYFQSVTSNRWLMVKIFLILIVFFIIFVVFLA

[4] = biological target: T4, syntaxin 18 (human) (UniProt Q9P2W9)
T4 sequence (looked up): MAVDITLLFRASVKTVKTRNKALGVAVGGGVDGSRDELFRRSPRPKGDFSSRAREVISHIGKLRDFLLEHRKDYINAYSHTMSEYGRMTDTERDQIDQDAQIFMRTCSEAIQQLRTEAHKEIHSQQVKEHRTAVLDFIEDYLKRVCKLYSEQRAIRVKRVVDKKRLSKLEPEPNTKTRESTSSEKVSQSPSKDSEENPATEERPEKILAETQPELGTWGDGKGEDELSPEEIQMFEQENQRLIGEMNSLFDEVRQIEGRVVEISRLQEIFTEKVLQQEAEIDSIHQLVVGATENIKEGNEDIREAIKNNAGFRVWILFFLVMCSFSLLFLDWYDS

[5] = biological target: T5, Similar to syntaxin 12 (human) (UniProt Q86Y82)
T5 sequence (looked up): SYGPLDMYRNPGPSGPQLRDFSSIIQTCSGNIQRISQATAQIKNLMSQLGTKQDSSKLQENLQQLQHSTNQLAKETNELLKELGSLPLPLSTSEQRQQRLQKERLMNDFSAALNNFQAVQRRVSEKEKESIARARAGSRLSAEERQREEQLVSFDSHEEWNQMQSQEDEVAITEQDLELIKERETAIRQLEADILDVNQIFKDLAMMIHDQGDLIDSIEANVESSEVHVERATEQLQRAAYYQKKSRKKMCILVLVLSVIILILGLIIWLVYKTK

Measured: binding

B1: E24-tagged NAPA (AviTag-TEV cleavage site-His6-PrC-NAPA), biotinylated (protein)
chain: MSGLNDIFEAQKIEWHEGAISAENLYFQGSSAHHHHHHGSEDQVDPRLIDGKMDNSGKEAEAMALLAEAERKVKNSQSFFSGLFGGSSKIEEACEIYARAANMFKMAKNWSAAGNAFCQAAQLHLQLQSKHDAATCFVDAGNAFKKADPQEAINCLMRAIEIYTDMGRFTIAAKHHISIAEIYETELVDIEKAIAHYEQSADYYKGEESNSSANKCLLKVAGYAALLEQYQKAIDIYEQVGTNAMDSPLLKYSAKDYFFKAALCHFCIDMLNAKLAVQKYEELFPAFSDSRECKLMKKLLEAHEEQNVDSYTESVKEYDSISRLDQWLTTMLLRIKKTIQGDEEDLR
modifications: biotin attached to the AviTag (BirA recognition sequence) by BirA in vitro
binds: all assays above
